These are yes or no findings as the source states them, for the method shown. In cells and extracts the contact can be indirect. Some entries that bind do so weakly or less than the wild type.
Key:
[1] = target: methyltransferase like 3 (METTL3) (UniProt Q86U44); test: co-IP; co-immunoprecipitation and western blotting in NPC cells (5-8F, CNE2); whole proteins
[2] = target: methyltransferase like 3 (METTL3) (UniProt Q86U44); test: co-IP; co-immunoprecipitation of USP5 with METTL3 in NPC cells with overexpressed BRD7

Chains of the proteins cited; added tags and fusions are not shown.
UniProt Q86U44: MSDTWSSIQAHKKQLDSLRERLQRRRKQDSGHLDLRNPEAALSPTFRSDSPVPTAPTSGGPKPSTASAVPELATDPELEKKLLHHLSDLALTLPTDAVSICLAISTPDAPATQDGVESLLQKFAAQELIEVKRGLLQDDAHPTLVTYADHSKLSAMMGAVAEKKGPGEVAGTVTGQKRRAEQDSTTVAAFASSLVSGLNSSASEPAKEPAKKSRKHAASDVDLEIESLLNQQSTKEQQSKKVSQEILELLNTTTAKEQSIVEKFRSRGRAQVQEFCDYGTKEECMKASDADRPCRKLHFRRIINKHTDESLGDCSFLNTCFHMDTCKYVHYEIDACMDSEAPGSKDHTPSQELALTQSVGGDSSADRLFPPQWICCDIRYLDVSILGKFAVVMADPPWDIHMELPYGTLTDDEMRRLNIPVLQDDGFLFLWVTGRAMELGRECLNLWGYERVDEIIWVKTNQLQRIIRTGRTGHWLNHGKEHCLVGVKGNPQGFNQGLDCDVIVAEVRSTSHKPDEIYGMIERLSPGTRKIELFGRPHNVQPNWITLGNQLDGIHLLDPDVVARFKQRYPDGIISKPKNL
UniProt P45974: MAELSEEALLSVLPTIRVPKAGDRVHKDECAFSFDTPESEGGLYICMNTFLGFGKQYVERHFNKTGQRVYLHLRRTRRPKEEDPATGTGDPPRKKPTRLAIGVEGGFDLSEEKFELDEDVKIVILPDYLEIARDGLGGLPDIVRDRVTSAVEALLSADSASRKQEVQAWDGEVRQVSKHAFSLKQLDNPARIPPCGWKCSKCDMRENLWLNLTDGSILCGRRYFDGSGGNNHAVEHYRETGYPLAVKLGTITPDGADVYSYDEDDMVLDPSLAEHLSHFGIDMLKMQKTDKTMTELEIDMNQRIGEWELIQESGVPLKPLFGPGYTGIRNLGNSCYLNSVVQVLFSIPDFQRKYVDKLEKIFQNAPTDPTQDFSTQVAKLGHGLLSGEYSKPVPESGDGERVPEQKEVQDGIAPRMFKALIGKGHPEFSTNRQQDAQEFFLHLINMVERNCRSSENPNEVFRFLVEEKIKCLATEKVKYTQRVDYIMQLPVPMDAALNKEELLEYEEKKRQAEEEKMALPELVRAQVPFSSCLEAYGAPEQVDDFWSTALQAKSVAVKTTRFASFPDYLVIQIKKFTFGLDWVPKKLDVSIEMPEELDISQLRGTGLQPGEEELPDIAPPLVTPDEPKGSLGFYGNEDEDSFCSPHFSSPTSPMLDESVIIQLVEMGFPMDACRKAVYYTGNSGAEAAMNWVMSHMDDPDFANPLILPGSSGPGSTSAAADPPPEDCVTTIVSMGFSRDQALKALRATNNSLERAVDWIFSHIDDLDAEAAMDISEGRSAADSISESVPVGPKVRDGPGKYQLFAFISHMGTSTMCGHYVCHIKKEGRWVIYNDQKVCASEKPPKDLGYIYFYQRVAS

binding [1]: binds | binding [2]: binds
Substance: ubiquitin specific peptidase 5 (USP5) (from UniProt P45974 1-858) (enzyme)
